In patent US6686334B2, “Use of inhibitors of protein kinase C epsilon to treat pain” (Regents of the University of California, priority 1998, dated 2004):
Some results were stated once for a whole list of compounds, not compound by compound. At least one compound was matched to its structure with a doubt left.

Columns and labels:
[1] = Mechanical hyperalgesia, Randall-Selitto paw-withdrawal test; assay type: in vivo, rat; conditions: rats that have not received carrageenan
[2] = test system: prolonged PGE2-induced hyperalgesia; test: Prolonged hyperalgesia in carrageenan-sensitized rats (chronic inflammatory pain model); assay type: in vivo, rat
Source text: In order to investigate the role, if any, of PKCε in chronic inflammatory pain, the following model system for chronic inflammatory pain was developed. Rats received intradermal hind paw injections of carrageenan, an inflammatory agent. […] This was considered an acute response to the carrageenan-induced inflammation. Although administration of Prostaglandin E2 (“PGE2”), 5-hydroxytryptamine (“5-HT,” serotonin) or CGS-21680 (an adenosine A2-selective receptor agonist) normally causes untreated rats (that is, rats that have not received carrageenan injections) to experience hyperalgesia lasting up to 6 hours, the hyperalgesia experienced by carrageenan-sensitized rats following administration of any one of these substances lasted up to 24 hours.
The prolonged PGE2-induced hyperalgesia normally seen in carrageenan-sensitized rats was inhibited by administration of BIM or εV1-2.
To examine whether protein kinase C modulates the processes by which a brief inflammatory event causes prolonged hyperalgesia many days later, rats received carrageenan and 1 μg BIM injections at the same time. Hyperalgesia was measured 72 hours later, when the rats were treated PGE2. […] Therefore, administration of an inhibitor of PKC either at approximately the same time as the inflammatory agent giving rise to chronic, prolonged hyperalgesia or at about the same time as the hyperalgesia-inducing stimulus can lessen such chronic hyperalgesia.

| Structure (SMILES) | Duration of hyperalgesia in untreated rats [1] | Duration of hyperalgesia in carrageenan-sensitized rats [2] |
| --- | --- | --- |
| CCNC(=O)[C@H]1O[C@@H](n2cnc3c(N)nc(NCCc4ccc(CCC(=O)O)cc4)nc32)[C@H](O)[C@@H]1O [CGS-21680] | up to 6 hours | up to 24 hours |
| CCCCC[C@H](O)/C=C/[C@H]1[C@H](O)CC(=O)[C@@H]1C/C=C\CCCC(=O)O [PGE2, prostaglandin E2] | up to 6 hours | up to 24 hours |
| NCCc1c[nH]c2ccc(O)cc12 [5-HT, 5-hydroxytryptamine] | up to 6 hours | up to 24 hours |
